# Binding screen against folded nucleic acids

Calls as published in the ROBIN set (doi:10.1002/anie.202211358).

Targets, with sequences 5′ to 3′:
PreQ1: PreQ1 riboswitch RNA pseudoknot, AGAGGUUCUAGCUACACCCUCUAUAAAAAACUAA. From B. subtilis. About 24,000 compounds screened, about 170 hits.
TPP: TPP riboswitch RNA three-way junction, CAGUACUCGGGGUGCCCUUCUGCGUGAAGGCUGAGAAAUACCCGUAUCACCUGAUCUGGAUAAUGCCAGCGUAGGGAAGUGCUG. About 24,000 compounds screened, about 160 hits.
SAM-II: SAM-II riboswitch RNA pseudoknot, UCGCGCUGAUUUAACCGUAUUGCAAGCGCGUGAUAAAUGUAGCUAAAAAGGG. About 21,000 compounds screened, about 200 hits.

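Compounds were printed on reactive glass slides in duplicate spots, a dye-labelled oligonucleotide was laid over them, and the fluorescence left after washing was read. For the PreQ1, TPP and SAM-II riboswitches the laboratory earlier reported (doi:10.1038/s41467-019-09493-3) 1 µM RNA, 2 h, and a rule that included a mean Z-score above 3 (spot signal-to-noise against the whole library), a score well above that on a control array, and duplicate spots agreeing (coefficient of variation under 100). The data file gives only the calls; its cut-offs may differ, and compounds hitting several targets are kept. A missing hit is not proof of no binding, and a hit is not a measured affinity.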 Key: active = hit, inactive = tested without a hit. The compounds are a random part of those screened. A target missing from an entry has no call listed here. A dash means that no call is listed here.

Calls for CCOC(=O)c1cccc(NS(=O)(=O)c2cc(Br)cnc2N)c1 are PreQ1: inactive; TPP: inactive. Calls for Nc1nonc1C(=O)NCCNCc1cccc(OCc2ccccc2F)c1 are PreQ1: inactive; TPP: inactive. With O=C(NCCCO)c1cnc2sc3c(n2c1=O)CCCC3 the screen gave PreQ1: inactive; TPP: inactive. Calls for COc1cc(CNCc2ccco2)cc(OC)c1 are PreQ1: inactive; TPP: inactive; SAM-II: inactive.

Cc1ccc(-c2cnc(NCc3ccccc3Cl)n2C)cc1 was scored PreQ1: inactive; TPP: inactive; SAM-II: inactive. Calls for C=CCNC(=S)NCC are PreQ1: inactive; TPP: inactive; SAM-II: inactive. With CNC(=O)N1N=C(c2ccc(N)cc2)c2cc3c(cc2CC1C)OCO3 (configuration not stated) the screen gave PreQ1: inactive; TPP: inactive; SAM-II: inactive. Nc1cc(N2CCN3CCC2CC3)nc(N2CCCC2)n1 was scored PreQ1: inactive; TPP: inactive; SAM-II: inactive.

Calls for Cc1cnc(N)nc1NCCCOC1CCN(C)CC1 are PreQ1: inactive; TPP: inactive; SAM-II: inactive. For CNc1c(NS(=O)(=O)c2cccc(C#N)c2)c(=O)oc2ccccc12 the calls were PreQ1: inactive; TPP: inactive; SAM-II: inactive. With O=C(O)C(=O)O.c1cncc(CNc2cccc3ccccc23)c1 the screen gave PreQ1: inactive; TPP: inactive; SAM-II: inactive. COc1cc([C@H]2N[C@](CO)(c3ccccc3)[C@H]3CN(C)C[C@@H]23)cc2c1OCO2 was scored PreQ1: inactive; TPP: inactive; SAM-II: inactive.

COc1cc2ncnc(Nc3cccc(Br)c3)c2cc1OC was scored PreQ1: inactive; TPP: inactive; SAM-II: inactive. CC(C)C(=O)Sc1[s+]sc2c1-c1ccccc1NC2(C)C.[Cl-] was scored PreQ1: inactive; TPP: inactive; SAM-II: inactive. Calls for COc1cc(CCC(=O)O)on1 are PreQ1: inactive; TPP: inactive; SAM-II: inactive. With CCS(=O)(=O)O.CN(C)C(=O)c1cccc(COc2ccc(N3C(N)=NC(N)=NC3(C)C)cc2Cl)c1 the screen gave PreQ1: inactive; TPP: inactive; SAM-II: inactive.

With CCCOc1ccc(Oc2nc(NC)nc(N3CCOCC3)n2)nn1 the screen gave PreQ1: inactive; TPP: inactive. With NCCNC(=O)c1nc(-c2ccccc2)no1 the screen gave PreQ1: inactive; TPP: inactive; SAM-II: inactive. COc1cc(OC)c(NC2c3ccccc3C(=O)N2Cc2ccccc2)cc1Cl (configuration not stated) was scored PreQ1: inactive; TPP: inactive; SAM-II: inactive. With CCNC(=O)[C@@H]1C[C@H](N)CN1C(=O)c1ccc(Cn2ccc3ccccc32)o1 the screen gave PreQ1: inactive; TPP: inactive; SAM-II: inactive.

For O=C(Cc1ccc2c(c1)OCO2)N1CCOCC(CO)C1 (configuration not stated) the calls were PreQ1: inactive; TPP: inactive; SAM-II: inactive. CCN(CC)c1ccc(NC2=NS(=O)(=O)C(c3ccc(C)cc3)=C2C)c(C)c1 was scored PreQ1: inactive; TPP: inactive. With CC(C)c1cc(Cn2nc(C3CCCNC3)n(-c3ccccc3)c2=O)on1 (configuration not stated) the screen gave PreQ1: inactive; TPP: inactive; SAM-II: inactive. Calls for Cc1nc(O)cc(C2CCN(c3cc(OC(C)C)nc(N)n3)CC2)n1 are PreQ1: inactive; TPP: inactive; SAM-II: inactive.

With CCc1cccc(NC(=O)CCc2c(C)nc3nc(CN)nn3c2C)c1 the screen gave PreQ1: inactive; TPP: inactive.

Some entries from above, unchanged:

| Compound | PreQ1 | TPP | SAM-II |
|---|---|---|---|
| `CCc1cccc(NC(=O)CCc2c(C)nc3nc(CN)nn3c2C)c1` | inactive | inactive | - |
| `C=CCNC(=S)NCC` | inactive | inactive | inactive |
| `CCOC(=O)c1cccc(NS(=O)(=O)c2cc(Br)cnc2N)c1` | inactive | inactive | - |